Measured values published in patent US20170340735A1.
Results are given in words; binding and its absence hold for the method and conditions named.

Target: recombinant monomeric cynomolgus monkey TIGIT-His (cynomolgus monkey)
Assay: BLI (ForteBio), IgG on AHQ sensor, single antigen concentration

| binding | Binder |
| --- | --- |
| no binding (tested: 100 nM antigen) | MAB19-IgG4 (antibody, V domains shown) VH: QVQLVQSGAEVKKPGASVKVSCKASGYTFTSHYMGWVRQAPGQGLEWMGVINPSMGATSYAQKFQGRVTMTRDTSTSTVYMELSSLRSEDTAVYYCARLHVSGSYYPAYLDYWGQGTMVTVSS VL: EIVMTQSPATLSVSPGERATLSCRASQSVSSNLAWYQQKPGQAPRHLIYGASTRATGIPARFSGSGSGTEFTLTISSLQSEDFAVYYCQQYIVFPWTFGGGTKVEIKR |
| no binding (tested: 100 nM antigen) | MAB20-IgG4 (antibody, V domains shown) VH: QVQLVQSGAEVKKPGASVKVSCKASGYTFTSHYMGWVRQAPGQGLEWVGIINPSMGATSYAQKFQGRVTMTRDTSTSTVYMELSSLRSEDTAVYYCARLHVSGSYYPAYLDYWGQGTMVTVSS VL: EIVMTQSPATLSVSPGERATLSCRASQSVSSNLAWYQQKPGQAPRHLIYGASTRATGIPARFSGSGSGTEFTLTISSLQSEDFAVYYCQQYIVFPWTFGGGTKVEIKR |
| no binding (tested: 100 nM antigen) | MAB21-IgG4 (antibody, V domains shown) VH: QVQLVQSGAEVKKPGASVKVSCKASGYTFTSHYMGWVRQAPGQGLEWMGIINPSMGATSYTQKFRGRVTMTRDTSTSTVYMELSSLRSEDTAVYYCARLHVSGSYYPAYLDYWGQGTMVTVSS VL: EIVMTQSPATLSVSPGERATLSCRASQSVSSNLAWYQQKPGQAPRHLIYGASTRATGIPARFSGSGSGTEFTLTISSLQSEDFAVYYCQQYIVFPWTFGGGTKVEIKR |
